Results are given in words; binding and its absence hold for the method and conditions named. In cells and extracts the contact can be indirect. Some entries that bind do so weakly or less than the wild type. For some of these results: Tags and fused reporters may be left off the sequences shown.
T1: Flag-tagged RIG-I (UniProt O95786)
T1 sequence: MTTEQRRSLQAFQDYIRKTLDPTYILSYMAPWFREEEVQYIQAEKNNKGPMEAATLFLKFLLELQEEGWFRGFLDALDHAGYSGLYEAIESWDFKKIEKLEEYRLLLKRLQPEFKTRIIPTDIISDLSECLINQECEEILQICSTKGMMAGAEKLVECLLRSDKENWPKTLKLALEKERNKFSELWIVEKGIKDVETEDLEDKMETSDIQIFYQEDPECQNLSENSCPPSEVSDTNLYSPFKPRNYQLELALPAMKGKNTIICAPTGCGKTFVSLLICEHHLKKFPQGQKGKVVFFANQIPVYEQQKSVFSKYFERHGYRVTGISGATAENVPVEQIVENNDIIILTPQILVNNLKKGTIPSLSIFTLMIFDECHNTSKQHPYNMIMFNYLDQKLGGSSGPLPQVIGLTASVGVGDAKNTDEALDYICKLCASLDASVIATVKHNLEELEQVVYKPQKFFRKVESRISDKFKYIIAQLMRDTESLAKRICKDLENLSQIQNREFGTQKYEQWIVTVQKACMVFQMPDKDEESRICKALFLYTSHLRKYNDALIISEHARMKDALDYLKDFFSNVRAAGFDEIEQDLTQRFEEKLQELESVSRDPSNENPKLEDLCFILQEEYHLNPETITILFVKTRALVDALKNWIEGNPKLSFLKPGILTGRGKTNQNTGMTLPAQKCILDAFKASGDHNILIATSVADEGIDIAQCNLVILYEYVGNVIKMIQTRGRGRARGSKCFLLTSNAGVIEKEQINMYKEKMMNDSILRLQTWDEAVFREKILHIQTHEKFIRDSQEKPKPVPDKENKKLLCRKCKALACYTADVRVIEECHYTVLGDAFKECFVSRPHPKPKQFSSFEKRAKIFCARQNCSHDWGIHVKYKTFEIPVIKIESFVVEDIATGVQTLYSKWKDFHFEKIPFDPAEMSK

By UniProt entry, the sequences of proteins in these tests, tags left out. Residues count along the entry.
UniProt Q6WB98, residues 19-539: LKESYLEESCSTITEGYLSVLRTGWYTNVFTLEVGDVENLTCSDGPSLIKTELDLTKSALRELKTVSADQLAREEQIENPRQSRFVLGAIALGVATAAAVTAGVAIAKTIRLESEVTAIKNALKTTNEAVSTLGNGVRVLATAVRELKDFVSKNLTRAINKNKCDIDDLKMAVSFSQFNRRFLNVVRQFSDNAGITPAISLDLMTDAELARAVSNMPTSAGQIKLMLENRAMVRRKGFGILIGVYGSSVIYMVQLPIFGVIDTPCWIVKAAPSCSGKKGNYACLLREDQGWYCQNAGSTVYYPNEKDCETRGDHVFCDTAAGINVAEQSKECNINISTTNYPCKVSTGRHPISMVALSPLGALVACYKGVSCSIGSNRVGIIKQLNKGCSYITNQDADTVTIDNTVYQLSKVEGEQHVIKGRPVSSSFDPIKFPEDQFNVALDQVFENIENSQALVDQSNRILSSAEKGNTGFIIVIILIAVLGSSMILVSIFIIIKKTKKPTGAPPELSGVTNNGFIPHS

T2: endogenous RIG-I (human (endogenous in A549)) (UniProt O95786)
T2 sequence: T1 sequence

T3: V5-tagged hMPV glycoprotein G (human metapneumovirus (Canadian isolate hMPV83 / CAN83)) (UniProt Q6WB94)
T3 sequence: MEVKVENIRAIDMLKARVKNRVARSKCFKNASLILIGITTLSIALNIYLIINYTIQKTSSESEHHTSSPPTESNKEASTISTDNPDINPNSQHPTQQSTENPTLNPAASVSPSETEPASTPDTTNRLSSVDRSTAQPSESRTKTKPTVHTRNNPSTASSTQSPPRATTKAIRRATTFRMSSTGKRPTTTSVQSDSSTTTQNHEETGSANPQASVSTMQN

B1: V5-tagged hMPV glycoprotein G (protein, UniProt Q6WB94 1-219)
chain: T3 sequence
B2: hMPV G protein expressed from rhMPV-WT infection (protein, UniProt Q6WB94 1-219)
chain: T3 sequence
modifications: glycosylated (two major glycosylated forms around 90 and 50 kD)
B3: Flag-tagged RIG-I (protein, UniProt O95786 1-925)
chain: T1 sequence

Tests used:
Flag-tagged RIG-I = biological target: T1, Flag-tagged RIG-I; assay: co-IP; 293 cells cotransfected with the Flag-tagged and V5-tagged expression plasmids and harvested after 30 h; lysate precleared with protein A/G-agarose; IP with anti-V5 or anti-Flag antibody (5 µg, 1 h, 4°C; beads overnight at 4°C); Western blot for the other tag
[1] = biological target: T2, endogenous RIG-I (human (endogenous in A549)); assay: co-IP; A549 cells mock infected or infected with rhMPV-WT or rhMPV-ΔG, MOI 2, 24 h; lysate immunoprecipitated with anti-RIG-I antibody or isotype control; Western blot with polyclonal anti-hMPV antibody
[2] = biological target: T3, V5-tagged hMPV glycoprotein G (human metapneumovirus (Canadian isolate hMPV83 / CAN83)); assay: co-IP; 293 cells cotransfected with the Flag-tagged and V5-tagged expression plasmids and harvested after 30 h; lysate precleared with protein A/G-agarose; IP with anti-V5 or anti-Flag antibody (5 µg, 1 h, 4°C; beads overnight at 4°C); Western blot for the other tag

Molecule | binding (Flag-tagged RIG-I) | further results
V5-tagged hMPV F protein (from UniProt Q6WB98 19-539) | no binding | 
B1 | binds | 
B2 |  | binding [1]: binds
B3 |  | binding [2]: binds

Reference: article PMC2386556
